US10925971B2, “Methods of treating PRLR positive breast cancer” (Regeneron Pharmaceuticals, Inc., priority 2016, dated 2021)
Some of these results come from one statement about several compounds together.

Test system: MCF7/PRLR tumors
Assay: MCF7/PRLR breast cancer xenograft, tumor size and tumor growth inhibition
Type: in vivo, NCr nude mice
Settings: first multi-dose trial, highest dose 15 mg/kg once a week for three weeks
Description: Briefly, 20×10^6 MCF7/PRLR cells (ATCC HTB-22 transfected with full length hPRLR as previously described) were implanted subcutaneously into the left mammary fat pad of female NCr nude mice. In other studies, 10×10^6 PC3/PRLR (ATCC CRL-1435 transfected with full length hPRLR as previously described) were implanted subcutaneously into the left flank of male SCID mice. Additionally, 10×10^6 parental T47D (ATCC HTB-133) or 7.5×10^10 T47D #11 cells (ATCC HTB-133 serially passaged in vivo as described below) were subcutaneously implanted into the left flank of female CB17 SCID mice. All mice were obtained from Taconic (Hudson, N.Y.). Each bolus of cells was supplemented with a 90-day estrogen release pellet (1.7 mg/pellet; Innovative Research America, Sarasota Fla.). […]
In multi-dose studies, mice were dosed once a week for a total of three weeks with tumor volumes and body weights being monitored twice weekly throughout the study. […] In single-dose studies, mice received a single dose of test ADC, and tumor volumes and body weights were monitored twice weekly throughout the study. […] Average tumor size as well as tumor growth inhibition relative to the vehicle treated group were calculated for each group. Tumors were measured with calipers twice a week until the average size of the vehicle group reached 1000 mm^3. Tumor size was calculated using the formula (length×width^2)/2. […]

B1: H1H6958N2-DM1: anti-PRLR antibody H1H6958N2 conjugated to the maytansinoid DM1 through an SMCC linker (conjugate)
VH: QVQLVESGGGVVQPGRSLRLSCGASGFTFRNYGMQWVRQGPGKGLEWVTLISFDGNDKYYADSVKGRFTISRDNSKNTLFLQMNSLRTEDTAVYYCARGGDFDYWGQGTLVTVSS
VL: DIQMTQSPSSLSASVGDRVTITCRASQDIRKDLGWYQQKPGKAPKRLIYAASSLHSGVPSRFSGSGSGTEFTLTISSLQPEDFATYYCLQHNSYPMYTFGQGTKLEIK
- percent reduction in tumor volume: 133-135%
